According to doi:10.1101/409490:

T1: Ski3-TAP (S. cerevisiae) (UniProt P17883)
T1 sequence: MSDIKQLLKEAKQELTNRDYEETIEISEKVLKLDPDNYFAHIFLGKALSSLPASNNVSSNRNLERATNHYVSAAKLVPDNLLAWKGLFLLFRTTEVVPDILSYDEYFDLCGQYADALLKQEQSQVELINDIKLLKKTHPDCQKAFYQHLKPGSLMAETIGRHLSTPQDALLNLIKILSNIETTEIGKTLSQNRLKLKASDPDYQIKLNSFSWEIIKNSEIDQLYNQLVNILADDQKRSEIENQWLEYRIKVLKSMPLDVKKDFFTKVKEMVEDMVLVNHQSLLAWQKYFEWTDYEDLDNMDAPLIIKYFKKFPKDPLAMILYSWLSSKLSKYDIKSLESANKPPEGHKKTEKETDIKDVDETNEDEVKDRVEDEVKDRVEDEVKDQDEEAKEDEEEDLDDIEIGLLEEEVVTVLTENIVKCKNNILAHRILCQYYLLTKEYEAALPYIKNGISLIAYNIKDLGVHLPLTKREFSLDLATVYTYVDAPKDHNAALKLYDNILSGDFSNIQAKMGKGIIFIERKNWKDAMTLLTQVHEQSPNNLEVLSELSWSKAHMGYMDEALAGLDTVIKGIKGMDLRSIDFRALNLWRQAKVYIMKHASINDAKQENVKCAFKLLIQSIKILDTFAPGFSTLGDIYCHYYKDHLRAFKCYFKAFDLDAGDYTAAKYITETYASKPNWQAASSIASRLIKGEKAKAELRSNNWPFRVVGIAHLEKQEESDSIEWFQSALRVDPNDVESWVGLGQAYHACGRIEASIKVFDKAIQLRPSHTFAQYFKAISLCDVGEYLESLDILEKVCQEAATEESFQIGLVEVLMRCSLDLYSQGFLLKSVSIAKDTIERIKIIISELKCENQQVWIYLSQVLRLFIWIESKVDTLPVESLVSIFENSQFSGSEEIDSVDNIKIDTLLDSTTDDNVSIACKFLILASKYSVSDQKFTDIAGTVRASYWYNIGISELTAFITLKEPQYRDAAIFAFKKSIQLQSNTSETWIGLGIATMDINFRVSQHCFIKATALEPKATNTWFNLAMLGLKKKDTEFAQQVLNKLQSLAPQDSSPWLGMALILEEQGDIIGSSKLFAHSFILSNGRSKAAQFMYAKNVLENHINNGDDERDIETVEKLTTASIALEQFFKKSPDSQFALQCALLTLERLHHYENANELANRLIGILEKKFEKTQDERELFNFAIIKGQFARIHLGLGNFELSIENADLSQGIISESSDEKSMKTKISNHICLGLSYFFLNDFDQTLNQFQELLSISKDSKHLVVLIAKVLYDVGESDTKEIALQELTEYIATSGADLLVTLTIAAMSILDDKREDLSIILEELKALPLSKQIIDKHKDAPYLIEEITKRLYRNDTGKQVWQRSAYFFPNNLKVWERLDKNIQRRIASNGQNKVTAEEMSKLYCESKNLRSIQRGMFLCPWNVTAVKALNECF

B1: Ska1 (SKI-Associated component 1) (protein, UniProt P36103 1-277)
chain: MNKEELLGFLLDDSIDSQKRCVTDQQAYSNWLKNDNDERTAHEESSSQSTIAALNKKKQTEAAQEDIEELLNGLEGIIGGADPRNLKSKSKRKTKKGGSKPREENVNTEKHIVMLEVEDFSDMSTHEDVNGASPSPNLDRSKKNEKRRKNAKELSYDELKDKLEVTTRKSRLECKDLKKKVHGLERRNLELEQRLEELKIENQTLIEINNKLLKNTNEDEINKSQRNKEKDRKRRERRTARRKDERKQEKKQEKKQDNKTSQSFPSSTDMNGQPIEF
B2: Dis3 (enzyme, UniProt Q08162 1-1001)
chain: MSVPAIAPRRKRLADGLSVTQKVFVRSRNGGATKIVREHYLRSDIPCLSRSCTKCPQIVVPDAQNELPKFILSDSPLELSAPIGKHYVVLDTNVVLQAIDLLENPNCFFDVIVPQIVLDEVRNKSYPVYTRLRTLCRDSDDHKRFIVFHNEFSEHTFVERLPNETINDRNDRAIRKTCQWYSEHLKPYDINVVLVTNDRLNREAATKEVESNIITKSLVQYIELLPNADDIRDSIPQMDSFDKDLERDTFSDFTFPEYYSTARVMGGLKNGVLYQGNIQISEYNFLEGSVSLPRFSKPVLIVGQKNLNRAFNGDQVIVELLPQSEWKAPSSIVLDSEHFDVNDNPDIEAGDDDDNNESSSNTTVISDKQRRLLAKDAMIAQRSKKIQPTAKVVYIQRRSWRQYVGQLAPSSVDPQSSSTQNVFVILMDKCLPKVRIRTRRAAELLDKRIVISIDSWPTTHKYPLGHFVRDLGTIESAQAETEALLLEHDVEYRPFSKKVLECLPAEGHDWKAPTKLDDPEAVSKDPLLTKRKDLRDKLICSIDPPGCVDIDDALHAKKLPNGNWEVGVHIADVTHFVKPGTALDAEGAARGTSVYLVDKRIDMLPMLLGTDLCSLKPYVDRFAFSVIWELDDSANIVNVNFMKSVIRSREAFSYEQAQLRIDDKTQNDELTMGMRALLKLSVKLKQKRLEAGALNLASPEVKVHMDSETSDPNEVEIKKLLATNSLVEEFMLLANISVARKIYDAFPQTAMLRRHAAPPSTNFEILNEMLNTRKNMSISLESSKALADSLDRCVDPEDPYFNTLVRIMSTRCMMAAQYFYSGAYSYPDFRHYGLAVDIYTHFTSPIRRYCDVVAHRQLAGAIGYEPLSLTHRDKNKMDMICRNINRKHRNAQFAGRASIEYYVGQVMRNNESTETGYVIKVFNNGIVVLVPKFGVEGLIRLDNLTEDPNSAAFDEVEYKLTFVPTNSDKPRDVYVFDKVEVQVRSVMDPITSKRKAELLLK
B3: Rrp46 (protein, UniProt P53256 1-223)
chain: MSVQAEIGILDHVDGSSEFVSQDTKVICSVTGPIEPKARQELPTQLALEIIVRPAKGVATTREKVLEDKLRAVLTPLITRHCYPRQLCQITCQILESGEDEAEFSLRELSCCINAAFLALVDAGIALNSMCASIPIAIIKDTSDIIVDPTAEQLKISLSVHTLALEFVNGGKVVKNVLLLDSNGDFNEDQLFSLLELGEQKCQELVTNIRRIIQDNISPRLVV
B4: Rrp45 (protein, UniProt Q05636 1-305)
chain: MAKDIEISASESKFILEALRQNYRLDGRSFDQFRDVEITFGKEFGDVSVKMGNTKVHCRISCQIAQPYEDRPFEGLFVISTEISPMAGSQFENGNITGEDEVLCSRIIEKSVRRSGALDVEGLCIVAGSKCWAVRADVHFLDCDGGFIDASCIAVMAGLMHFKKPDITVHGEQIIVHPVNEREPVPLGILHIPICVTFSFFNPQDTEENIKGETNSEISIIDATLKEELLRDGVLTVTLNKNREVVQVSKAGGLPMDALTLMKCCHEAYSIIEKITDQILQLLKEDSEKRNKYAAMLTSENAREI
B5: Csl4 (protein, UniProt P53859 1-292)
chain: MACNFQFPEIAYPGKLICPQYGTENKDGEDIIFNYVPGPGTKLIQYEHNGRTLEAITATLVGTVRCEEEKKTDQEEEREGTDQSTEEEKSVDASPNDVTRRTVKNILVSVLPGTEKGRKTNKYANNDFANNLPKEGDIVLTRVTRLSLQRANVEILAVEDKPSPIDSGIGSNGSGIVAAGGGSGAATFSVSQASSDLGETFRGIIRSQDVRSTDRDRVKVIECFKPGDIVRAQVLSLGDGTNYYLTTARNDLGVVFARAANGAGGLMYATDWQMMTSPVTGATEKRKCAKPF
B6: Mtr3 (protein, UniProt P48240 1-250)
chain: MNVQDRRRLLGPAAAKPMAFSNTTTHVPEKKSTDLTPKGNESEQELSLHTGFIENCNGSALVEARSLGHQTSLITAVYGPRSIRGSFTSQGTISIQLKNGLLEKYNTNELKEVSSFLMGIFNSVVNLSRYPKSGIDIFVYLTYDKDLTNNPQDDDSQSKMMSSQISSLIPHCITSITLALADAGIELVDMAGAGEANGTVVSFIKNGEEIVGFWKDDGDDEDLLECLDRCKEQYNRYRDLMISCLMNQET
B7: Rrp42 (protein, UniProt Q12277 1-265)
chain: MSLSVAEKSYLYDSLASTPSIRPDGRLPHQFRPIEIFTDFLPSSNGSSRIIASDGSECIVSIKSKVVDHHVENELLQVDVDIAGQRDDALVVETITSLLNKVLKSGSGVDSSKLQLTKKYSFKIFVDVLVISSHSHPVSLISFAIYSALNSTYLPKLISAFDDLEVEELPTFHDYDMVKLDINPPLVFILAVVGNNMLLDPAANESEVANNGLIISWSNGKITSPIRSVALNDSNVKSFKPHLLKQGLAMVEKYAPDVVRSLENL
B8: Rrp41 (protein, UniProt P46948 1-246)
chain: MSRLEIYSPEGLRLDGRRWNELRRFESSINTHPHAADGSSYMEQGNNKIITLVKGPKEPRLKSQMDTSKALLNVSVNITKFSKFERSKSSHKNERRVLEIQTSLVRMFEKNVMLNIYPRTVIDIEIHVLEQDGGIMGSLINGITLALIDAGISMFDYISGISVGLYDTTPLLDTNSLEENAMSTVTLGVVGKSEKLSLLLVEDKIPLDRLENVLAIGIAGAHRVRDLMDEELRKHAQKRVSNASAR
B9: Rrp4 (protein, UniProt P38792 1-359)
chain: MSEVITITKRNGAFQNSSNLSYNNTGISDDENDEEDIYMHDVNSASKSESDSQIVTPGELVTDDPIWMRGHGTYFLDNMTYSSVAGTVSRVNRLLSVIPLKGRYAPETGDHVVGRIAEVGNKRWKVDIGGKQHAVLMLGSVNLPGGILRRKSESDELQMRSFLKEGDLLNAEVQSLFQDGSASLHTRSLKYGKLRNGMFCQVPSSLIVRAKNHTHNLPGNITVVLGVNGYIWLRKTSQMDLARDTPSANNSSSIKSTGPTGAVSLNPSITRLEEESSWQIYSDENDPSISNNIRQAICRYANVIKALAFCEIGITQQRIVSAYEASMVYSNVGELIEKNVMESIGSDILTAEKMRGNGN
B10: Rrp43 (protein, UniProt P25359 1-394)
chain: MAESTTLETIEIHPITFPPEVLARISPELSLQRHLSLGIRPCLRKYEEFRDVAIENNTLSRYADAGNIDTKNNILGSNVLKSGKTIVITSITGGIIEETSAAIKDLDDFGEEELFEVTKEEDIIANYASVYPVVEVERGRVGACTDEEMTISQKLHDSILHSRILPKKALKVKAGVRSANEDGTFSVLYPDELEDDTLNETNLKMKRKWSYVLYAKIVVLSRTGPVFDLCWNSLMYALQSVKLPRAFIDERASDLRMTIRTRGRSATIRETYEIICDQTKSVPLMINAKNIAFASNYGIVELDPECQLQNSDNSEEEEVDIDMDKLNTVLIADLDTEAEETSIHSTISILAAPSGNYKQLTLVGGGAKITPEMIKRSLLLSRVRADDLSTRFNI
B11: Rrp40 (protein, UniProt Q08285 1-240)
chain: MSTFIFPGDSFPVDPTTPVKLGPGIYCDPNTQEIRPVNTGVLHVSAKGKSGVQTAYIDYSSKRYIPSVNDFVIGVIIGTFSDSYKVSLQNFSSSVSLSYMAFPNASKKNRPTLQVGDLVYARVCTAEKELEAEIECFDSTTGRDAGFGILEDGMIIDVNLNFARQLLFNNDFPLLKVLAAHTKFEVAIGLNGKIWVKCEELSNTLACYRTIMECCQKNDTAAFKDIAKRQFKEILTVKEE

target: T1, Ski3-TAP (S. cerevisiae); test: affinity purification with mass spectrometry

binding | Binder
binds | B1
binds | B2
binds | B3
binds | B4
binds | B5
binds | B6
binds | B7
binds | B8
binds | B9
binds | B10
binds | B11

These are yes or no findings as the source states them, for the method shown. Binding seen in cells or lysates may run through a third protein. Here binding means that the protein was enriched with, or labelled near, the bait; the list need not be complete.
